We go through 63 molecules from PubChem BioAssay AID2685 (National Center for Advancing Translational Sciences (NCATS), 2010).

Some of the results follow. These are further read-outs of the screen, such as a control signal, another cell line or another target. No call is given for them. Most of these compounds were active or inconclusive in the main read-out, so they are no random draw. Potencies come from curve fits of mixed quality, noted in brackets.

This assay is described as follows: qHTS Assay for Lipid Storage Modulators in Drosophila S3 Cells.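 On cell number change: cells counted by Cell Tracker Red CMTPX staining in the red channel.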 To be noted: BODIPY lipid droplet fluorescence, 18-24 h; for cell number change: measured here: cell count max response, cells fed with added oleic acid. The procedure, abridged:
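Drosophila S3 cells got compounds at several concentrations plus oleic acid (400 uM solution). Laser-scanning cytometry with 488 nm excitation read lipid droplets at 500-530 nm and cells at 575-640 nm. Percent activity was relative to 20 uM Triacsin C.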
(qHTS replaces the single test concentration by a dilution series.)

[1] abbreviates: measured here: lipid fluorescence (Fed channel) AC50, cells fed with added oleic acid.
Setting [2] is: measured here: cell number channel AC50, cells fed with added oleic acid.

Regarding `Cc1nc(C(=O)Nc2ccccc2)sc1C1(C)CC(c2cccc([N+](=O)[O-])c2)=NO1` (configuration not stated), the cell number change is 8%. Besides, the AC50 under setting [1] is 29.1 µM [rising, single point]. Consider `O=C(NNC(=O)C1CCCN(S(=O)(=O)c2ccc3ccccc3c2)C1)C1CC1` (configuration not stated), for which the cell number change was 20.6%. Also, under setting [1], the AC50 is 0.82 µM [rising, partial curve, poor fit].

In the case of `CN(CC(=O)Nc1ccc(F)cc1)C(=O)c1ccncc1`, the AC50 under setting [1] was 3.66 µM [falling, partial curve]. Turning to `S=C(N=Nc1ccccc1)NNc1ccccc1`, the cell number change was -83%. In addition, the AC50 under setting [2] was 13 µM [falling, partial curve]. Under setting [1], the AC50 is 13 µM [falling, partial curve]. `Cc1c(Br)c(C(F)(F)F)nn1CC(=O)NCCCn1ccnc1`: the cell number change is -12.2%. For the same molecule, the AC50 under setting [1] is 0.0058 µM [falling, full curve, poor fit]. On to `O=c1[nH]c(Cc2ccccn2)nc2scc(-c3ccccc3Cl)c12`, for which the cell number change is -1.59%.

As to `CCn1c(C)nc2cc(S(=O)(=O)C(F)F)ccc21`, the cell number change is -7.28%. The AC50 under setting [1] is 29.1 µM [rising, single point]. `CCCCc1nc2cc(C(=O)N3CCNC(=O)C3CC(=O)OC)ccc2o1` (configuration not stated): the cell number change was found to be 29.2%. The AC50 under setting [2] is 2.91 µM [rising, full curve, poor fit]. In the case of `CCC1Nc2ccccc2-c2nnc(SC)nc2O1` (configuration not stated), the cell number change came to 6.96%. In addition, the AC50 under setting [2] is 2.59 µM [falling, single point]. Besides, the AC50 under setting [1] was 4.11 µM [falling, single point]. `O=C(CCl)NC(=O)NC12CC3CC(CC(C3)C1)C2`: the cell number change is -28.7%. Also, the AC50 under setting [1] is 2.06 µM [rising, single point]. For the molecule `CCCn1nc(C(=O)OCC(=O)Nc2cccc(S(N)(=O)=O)c2)c2ccccc2c1=O`, the cell number change is -6.42%.

`Cc1cccc(NC(=S)N/N=C/c2ccc3c(c2)OCO3)c1`: the cell number change is -15%. For the same molecule, under setting [1], the AC50 is 0.13 µM [falling, full curve, poor fit]. In the case of `COc1nccnc1NS(=O)(=O)c1ccc(NC(=S)NC(=O)c2ccc(F)cc2)cc1`, the AC50 under setting [1] was 0.517 µM [rising, partial curve].

Take `O=S(=O)(NC1CCSc2ccccc21)c1ccccc1` (configuration not stated): the cell number change was 6.31%. Further, the AC50 under setting [1] was 6.51 µM [falling, single point]. As for `COc1cc2cc(C(c3nnnn3C3CCCC3)N3CCc4ccccc43)c(=O)[nH]c2cc1OC` (configuration not stated), the cell number change is -13.3%. With `CCC(C)N(C)C1CCN(C(=S)Nc2cccc(OC)c2)CC1` (configuration not stated), the AC50 under setting [1] was 18.4 µM [rising, single point].

Take `COc1cc(C(=O)NN(CCC#N)C2=NS(=O)(=O)c3ccccc32)cc(OC)c1OC`: the cell number change is -9.62%. `CCOC(=O)c1c(-c2ccccc2)csc1NC(=O)c1ccc(S(=O)(=O)N2CCOCC2)cc1`: the cell number change was 10.3%. Under setting [2], the AC50 is 6.51 µM [rising, single point]. Further, the AC50 under setting [1] was 6.51 µM [rising, partial curve]. As to `Cc1ccccc1-n1nc(-c2cccnc2)cc1C(=O)N/N=C/c1ccncc1`, the cell number change came out at 32.5%. Besides, under setting [2], the AC50 is 8.2 µM [rising, single point]. For the same molecule, the AC50 under setting [1] is 16.4 µM [rising, single point]. Regarding `CC(C)c1cc(=O)oc2c3c4c(cc12)CCCN4CCC3`, the cell number change was -3.3%. The AC50 under setting [1] was 29.1 µM [rising, single point]. In the case of `COc1ccc(NC(=O)COC(=O)CCNS(=O)(=O)c2ccccc2)cc1OC`, the cell number change was -18.8%. Moreover, the AC50 under setting [1] was 3.66 µM [falling, full curve]. Take `CCN(C(=O)c1cc(Cl)ccc1OC)c1ccccc1`: the cell number change is 15.2%. As for `O=C(c1cc(Br)c(Br)s1)N1CCN(c2ccccn2)CC1`, the cell number change came to 12.4%. The AC50 under setting [1] was 5.17 µM [falling, partial curve]. As to `CCOc1ccc(CCNC(=O)C2CCN(c3ccc(N4CCOCC4)nn3)CC2)cc1OCC`, the cell number change came to 5.09%.

Consider `CC(NC(=O)/C(C#N)=C/c1cn(-c2ccccc2)nc1-c1ccc(F)cc1)c1ccccc1` (configuration not stated), for which the cell number change came to 18.8%. Also, the AC50 under setting [1] was 1.16 µM [rising, full curve]. For `Cc1ccc(OCC(=O)NCCNC(=O)c2ccncc2)cc1`, the cell number change was -3.81%. For `COc1cccc(/C=C/C(=O)Nc2ccc3[nH]c(=O)[nH]c3c2)c1`, the cell number change is -14.6%. For the molecule `O=C(NCc1ccccn1)c1cc2cc(Br)ccc2oc1=O`, the cell number change is 9.99%. Further, under setting [1], the AC50 is 29.1 µM [falling, single point].

In the case of `Cc1ccnc(NS(=O)(=O)c2ccc(NC(=O)CCc3ccccc3)cc2)n1`, the cell number change came out at 5.56%. Moreover, under setting [2], the AC50 is 3.66 µM [rising, partial curve, poor fit]. For `O=C1C2C3C=CC(C3=C(c3ccccc3)c3ccccc3)C2C(=O)N1CCO` (configuration not stated), the cell number change turned out to be 41.3%. For the same molecule, the AC50 under setting [2] is 18.4 µM [rising, partial curve, poor fit]. For the molecule `COc1ccc(CN2C(=O)c3ccccc3C2C(=O)NCC2CCCO2)c(OC)c1` (configuration not stated), the cell number change was found to be 10.3%. Also, under setting [1], the AC50 was 0.651 µM [rising, single point]. Take `CN(Cc1cccs1)C(=O)CSc1nc(N)cc(N)n1`: the cell number change was 13.3%. Regarding `CC(CCc1ccccc1)NC(=O)CSc1nccc(=O)[nH]1` (configuration not stated), the cell number change is 5.14%. Also, the AC50 under setting [1] is 0.00461 µM [rising, full curve, poor fit]. As to `CCOc1cc(/C=N/Nc2nnc(C)n2N)ccc1OC(C)=O`, the cell number change was -30.4%. Moreover, the AC50 under setting [2] is 29.1 µM [falling, single point]. The AC50 under setting [1] was 20.6 µM [falling, single point]. `O=C(NCc1ccc2c(c1)OCO2)C1CCN(c2ccc(S(=O)(=O)N3CCCC3)cc2)CC1`: the AC50 is 0.58 µM [rising, single point] under setting [2] and 0.92 µM [rising, full curve] under setting [1]. As for `CCc1ccc(OCc2nnc(SCC(=O)NCC3CCCO3)n2C)cc1` (configuration not stated), the cell number change worked out at 16.7%. Turning to `O=C(Cn1cnc2ccccc2c1=O)NC1CCS(=O)(=O)C1` (configuration not stated), the cell number change is -23.8%. Moreover, the AC50 under setting [2] was 6.51 µM [falling, partial curve, poor fit]. With `CCc1ccc2oc(=O)cc(CN(C)Cc3ccccc3)c2c1`, the cell number change was -5.88%. For `CCc1ccc(NC(=O)C(=O)c2ccccc2NC(C)=O)cc1`, the cell number change is -1.42%. Further, the AC50 under setting [1] is 16.4 µM [rising, partial curve, poor fit].

For the molecule `Cn1c(C(=O)NCCN2CCOCC2)cc2c(=O)n(C)c3ccccc3c21`, the cell number change was -25.7%. Moreover, the AC50 under setting [1] was 25.9 µM [falling, single point]. Regarding `CC1(C)CC2CC(C)(CN2C(=O)C23CCC(C)(C(=O)C2)C3(C)C)C1` (configuration not stated), the cell number change was -9.45%. The AC50 under setting [1] was 5.8 µM [falling, single point]. Regarding `CCOC(=O)Cn1nc(C)n(-c2ccc(Br)cc2)c1=O`, the cell number change was -20%. Take `C=CCn1c(C(c2ccccc2)c2ccccc2)n[nH]c1=S`: the AC50 under setting [1] is 6.51 µM [falling, single point]. `CC(C)=CC(=O)N1CCCC(N2CCN(c3ccc(F)cc3)CC2)C1` (configuration not stated): the cell number change is -9.38%. As to `CCN(C(=O)COC(=O)c1cccnc1Nc1cccc(C(F)(F)F)c1)C1CCS(=O)(=O)C1` (configuration not stated), the cell number change was 13.1%. The AC50 under setting [2] was 5.17 µM [falling, single point]. Further, under setting [1], the AC50 is 6.51 µM [falling, partial curve].

In the case of `O=C1CSC2=NCN(c3ccccc3)CN12`, the cell number change is -54.8%. Besides, the AC50 under setting [2] was 29.1 µM [falling, single point]. As for `Cn1c(=NC(=O)c2ccccc2[N+](=O)[O-])sc2cccc(F)c21`, the cell number change is 12.4%. In addition, the AC50 under setting [2] was 2.31 µM [rising, partial curve]. For the molecule `O=C(Nc1cccc(S(=O)(=O)N2CCCCCC2)c1)c1ccc(=O)[nH]c1`, the cell number change was -1.69%. The AC50 under setting [2] is 0.00517 µM [falling, full curve, poor fit]. In addition, under setting [1], the AC50 was 0.00517 µM [falling, full curve, poor fit]. As for `c1ccc(-c2cnnn2-c2ccccc2)cc1`, the cell number change was 31.6%. Under setting [2], the AC50 is 32.6 µM [rising, single point]. Also, under setting [1], the AC50 was 29.1 µM [rising, single point].

In the case of `Cc1ccc(NC(=O)C2=CC(c3ccc(C)cc3)=NS(=O)(=O)N2C)cc1`, the cell number change turned out to be 38.9%. The AC50 under setting [2] was 5.17 µM [rising, partial curve]. Further, the AC50 under setting [1] was 16.4 µM [falling, partial curve].

With `S=C(NCc1ccc(Cl)cc1Cl)NC1CCCCC1`, the AC50 under setting [1] is 0.58 µM [rising, full curve]. With `CC(=O)c1c[nH]c(C(=O)Nc2ccc(N3CCCCCC3)cc2)c1`, the cell number change was -36.9%. The AC50 under setting [2] was 29.1 µM [falling, single point]. The AC50 under setting [1] is 9.2 µM [falling, single point]. Consider `O=c1oc(-c2ccccc2)nc2sc3c(c12)CCC3`, for which the cell number change stood at 19.6%. Besides, the AC50 under setting [1] was 9.2 µM [rising, partial curve]. For `COc1ccc(OC)c(S(=O)(=O)N2CCN(c3ccccc3)CC2)c1`, the cell number change stood at 12.7%. Moreover, the AC50 under setting [1] is 3.66 µM [rising, full curve, poor fit]. `COc1ccc2nc(N=NC3=C(O)CC(C)(C)CC3=O)sc2c1`: the cell number change was -45.8%. Moreover, the AC50 under setting [2] was 0.058 µM [falling, full curve, poor fit]. In addition, under setting [1], the AC50 is 1.46 µM [falling, partial curve]. In the case of `O=C(CCN1C(=O)c2ccccc2C1=O)N(CCO)Cc1ccccc1`, the cell number change was found to be 10.7%. Turning to `COc1ccc(S(=O)(=O)Nc2ccccc2C(=O)NCc2cccnc2)cc1C`, the cell number change turned out to be 3.81%.

In the case of `CN1CCC(N(C)C(=O)c2ccccc2F)CC1`, the cell number change was -7.92%. Under setting [1], the AC50 is 1.64 µM [falling, partial curve].

In the case of `COc1ccccc1OCC(=O)NCC1CCCCC1`, the AC50 under setting [2] was 3.66 µM [rising, single point]. `COc1ccc(NS(=O)(=O)c2cccc(C(=O)NNC(=O)c3ccc(C)o3)c2)cc1`: the cell number change was found to be 13.6%. Moreover, the AC50 under setting [2] was 6.51 µM [falling, single point]. Under setting [1], the AC50 is 1.03 µM [rising, full curve, poor fit]. As to `CCCCC[n+]1ccn(-c2nc3ccccc3nc2[N-]S(=O)(=O)c2ccccc2)c1`, the cell number change was -2.67%. Further, the concentration at half-maximal activity (AC50) under setting [1] was 1.84 µM [rising, partial curve, poor fit]. For the molecule `Cc1ccc2[nH]c(C(=O)O)c(-c3ccccc3)c2c1`, the cell number change is -5.75%. The AC50 under setting [1] is 13 µM [falling, partial curve, poor fit]. Consider `Cc1cc(C)c(S(=O)(=O)NC2CC3CCC2C3)c(C)c1` (configuration not stated), for which the cell number change was -21.5%. Under setting [1], the concentration at half-maximal activity (AC50) was 29.1 µM [falling, single point].

One may read the AC50 as the midpoint of the concentration-response curve, whichever way the signal moves.
